Results are given in words; binding and its absence hold for the method and conditions named. Some results given as binding are weak or reduced against the parent protein; the word gives no strength. Each block holds one binder with its values, some of them ahead of it.
Biological target: mouse serum albumin (mouse) (UniProt P07724)
Test: ELISA: dAb captured on protein A, biotinylated MSA in solution

Amino acid sequences for entries named in this document (tags omitted). Residues count along the entry.
UniProt P07724, residues 25-608: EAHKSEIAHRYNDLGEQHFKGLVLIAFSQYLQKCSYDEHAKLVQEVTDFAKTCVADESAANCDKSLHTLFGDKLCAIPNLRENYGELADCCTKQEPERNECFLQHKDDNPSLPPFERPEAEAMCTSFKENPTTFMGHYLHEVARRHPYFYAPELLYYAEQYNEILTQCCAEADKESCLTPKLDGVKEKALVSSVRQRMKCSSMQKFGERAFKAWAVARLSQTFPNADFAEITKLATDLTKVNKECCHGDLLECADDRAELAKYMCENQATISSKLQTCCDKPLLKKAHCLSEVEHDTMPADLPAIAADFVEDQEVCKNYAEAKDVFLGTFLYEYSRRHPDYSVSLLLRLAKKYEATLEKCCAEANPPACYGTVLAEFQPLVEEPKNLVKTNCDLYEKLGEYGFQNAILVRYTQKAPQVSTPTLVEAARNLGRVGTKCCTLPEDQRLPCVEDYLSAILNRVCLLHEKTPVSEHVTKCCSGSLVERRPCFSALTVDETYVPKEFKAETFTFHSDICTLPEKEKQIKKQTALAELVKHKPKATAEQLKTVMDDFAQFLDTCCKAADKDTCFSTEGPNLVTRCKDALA

binding: binds
B1: anti-serum albumin dAb clones 8, 10 (protein)
VH: EVQLLESGGGLVQPGGSLRLSCAASGFTFWVYQMDWVRQAPGKGLEWVSSISAFGAKTLYADSVKGRFTISRDNSKNTLYLQMNSLRAEDTAVYYCAKLSGKFDYWGQGTLVTVSS

binding: binds
B2: anti-serum albumin dAb clone 36 (protein)
VH: EVQLLESGGGLVQPGGSLRLSCAASGFTFWSYQMTWVRQAPGKGLEWVSSISSFGSSTLYADSVKGRFTISRDNSKNTLYLQMNSLRAEDTAVYYCAKGRDHNYSLFDYWGQGTLVTVSS

— patent publication US20130216538A1
